# Test results from PubChem BioAssay AID588497 (NMMLSC, 2011).
# Hit rate of the full screen: of about 360,000 compounds, about 780 (0.22%) were called active. Inconclusive results, whose numbers are uncertain, are shown with a selection of clear calls. Rule as the data show it: active = inhibition above about 35% (passing the limit was not always enough); inconclusive = no clear call, values can overlap the other calls.
# Test system: Botulinum neurotoxin type F light chain protease (Clostridium botulinum)
# Assay: BoNT/F light chain protease inhibitors, primary screen, biochemical, flow cytometry, MLPCN library (AID 588497); also: plate controls were buffer without enzyme for full effect and enzyme alone for no effect
# Conditions: Multiplex microsphere protease cleavage assay, at 10 µM, stronger effect = higher value
row,SMILES,inhibition
1,CC1=C(C(=O)OCc2ccccc2)C(c2ccccc2Cl)NC(=O)N1C (configuration not stated),inconclusive: 31.6%
2,C#CCN1C(=O)S/C(=C\c2ccc(-c3ccc(C(=O)O)cc3C)o2)C1=O,inconclusive: 22.8%
3,CCC(C)(C)NC(=O)C(c1cccn1C)N(C(=O)Cn1nnc2ccccc21)c1ccc(NC(C)=O)cc1 (configuration not stated),inactive: -0.9%
4,COc1ccccc1OCCOCCN1CCCC1,inconclusive: 17.7%
5,CC(=O)Nc1cc(-c2ccc(N)nc2)cn2c(-c3cccc(C(F)(F)F)c3)cnc12,inactive: -7.1%
6,Cc1ncc(CC(=O)n2cc(C(=O)c3cc(Cl)ccc3O)cn2)s1,inconclusive: -6.9%
7,O=C(c1ccccc1)N1CCN(C(=O)c2ccccc2)CC1,inactive: -4.2%
8,CC(C)N1CCN(Cc2c[nH]c3ccccc23)CC1CCO (configuration not stated),inconclusive: -17%
9,CC(=O)N(C(C)=O)c1nc(-c2ccccc2)cn1/N=C/c1ccccc1,inconclusive: -17.9%
10,CCC(NC(=O)NNC(=O)c1ccncc1)(C(F)(F)F)C(F)(F)F,inconclusive: 53.4%
11,CC(=O)OC(C=C(C)C)C/C(C)=C/COc1c2ccoc2cc2oc(=O)ccc12 (configuration not stated),inactive: 3.1%
12,CCOc1ccc(CCN2C(=S)N([C@@H](CC(C)C)CN3CCCC3CN3C(=S)NC[C@@H]3CC(C)C)C[C@@H]2CC(C)C)cc1 (some centres not stated),inactive: -23.5%
13,Cc1ccc(NC(=O)Nc2nc(-c3ccc(C)s3)cs2)cc1,inconclusive: 37%
14,CCc1c(C)c(C#N)c2[nH]c3ccccc3n2c1=S,inconclusive: 66.8%
15,NS(=O)(=O)c1ccc(Nc2ccc([N+](=O)[O-])c3nonc23)cc1,inactive: -2.2%
16,O=C(c1ccco1)N1CCN(C(=O)C(Cc2ccccc2)NS(=O)(=O)c2cccs2)CC1 (configuration not stated),inconclusive: 7%
17,Cc1cc(NC(=O)CSc2ccc3nnc(-c4ccccc4)n3n2)no1,inactive: 6.9%
18,O=C(Nc1nnc([C@@H]2C[C@H](O)[C@@H](CO)O2)s1)c1cccc(Cl)c1,inactive: -2.1%
19,O=C(NC(=S)Nc1cccc(O)c1)c1cncc(Br)c1,inconclusive: 74.6%
20,CC(C)(C)CN1CCN(Cc2c[nH]c3ccccc23)CC1CCO (configuration not stated),inconclusive: -48.5%
21,CC(=O)Nc1ccc(S(=O)(=O)N2CCSC2c2ccccc2)cc1 (configuration not stated),inconclusive: 3.1%
22,O=C(NCCCNCCCNC(=O)c1ccc(/C=N/O)nc1)c1ccc(/C=N/O)nc1,inconclusive: -14.3%
23,Cc1ccc(O)c(C2=NCCNC(C(F)(F)C(F)F)=C2)c1,inactive: -1%

row,SMILES,inhibition
1,CCOC(=O)C1CCCN(CC(O)COc2ccccc2C(C)=O)C1 (configuration not stated),inactive: -0.7%
2,C(=NNc1ccc2ccccc2n1)c1ccccn1,inactive: -13.4%
3,CN(C)CCCNc1nc2cc(-c3ccc(F)cc3)sc2c(=O)n1C,inactive: -4%
4,O=C(O)c1cc(NCc2cccs2)ccc1N1CCOCC1,inconclusive: -12.4%
5,CC(=O)c1ccc(N2Cc3ccccc3C2)cc1,inconclusive: 28.5%
6,Cc1cccn2c(=O)c3cc(C(=O)NCc4ccco4)c(=N)n(C(C)C)c3nc12,inactive: -3%
7,COCc1nc2ccccc2n1CCc1ccccc1,inconclusive: -24.8%
8,COc1cccc(-n2cc(C(=O)NC(C)C)c3ccccc3c2=O)c1,inconclusive: 11.8%
9,CCCN1CCN(C2CCCCC2NS(=O)(=O)c2ccccc2)CC1 (configuration not stated),inactive: 2.5%
10,OC1(c2ccc(F)cc2)CCN(Cc2cccnc2)CC1,inconclusive: 4.9%
11,Cc1ccc(-n2nnnc2SC(C)C(=O)NCC(=O)Nc2ccc(F)c(F)c2F)c(C)c1 (configuration not stated),inactive: -3%
12,Cc1ccccc1NC(=O)C(C)O/N=C/c1cccc([N+](=O)[O-])c1 (configuration not stated),inactive: -21.5%
13,O=C1/C(=C/c2ccncc2)Oc2cc(OS(=O)(=O)c3ccccc3)ccc21,inconclusive: 3.3%
14,COc1ccc(Cl)cc1NCCC(O)c1ccc(F)cc1 (configuration not stated),inconclusive: 9.8%
15,CCN(CC)S(=O)(=O)c1ccc(-c2cc(C(=O)OC)sc2C(F)(F)F)cc1,inconclusive: -45%
16,CN(CC(=O)Nc1cccc(F)c1)C(=O)CC1CCCCC1,inconclusive: -8%
17,CCn1c(SCC(=O)Nc2ccc(C(C)=O)cc2)nc2nc3c(cc2c1=O)COC(C)(C)C3,inconclusive: 77%
18,CCn1c(=S)sc2c(=O)n(CC(=O)Nc3ccc(Cl)cc3)c(C)nc21,inactive: 1.8%
19,COc1ccc(-c2cc3nc(C)n(N)c(=O)c3s2)cc1,inconclusive: -26.3%
20,COc1ccc(/C=N/n2cnnc2)cc1Br,inconclusive: 10.7%
21,COc1ccc(-c2noc(C3CCCN(C(=O)c4ccc(F)cc4)C3)n2)cc1 (configuration not stated),inconclusive: -18.9%
22,Oc1ccc(-c2nc(-c3ccc(O)c(O)c3)cs2)cc1,inactive: -1.5%
23,Cc1cc(NC(=O)c2cc(S(=O)(=O)N3CCCCC3)ccc2C)no1,inactive: 7.2%

# Copied from the entries so far (2 entries):
row,SMILES,inhibition
15,CCN(CC)S(=O)(=O)c1ccc(-c2cc(C(=O)OC)sc2C(F)(F)F)cc1,inconclusive: -45%
16,CN(CC(=O)Nc1cccc(F)c1)C(=O)CC1CCCCC1,inconclusive: -8%

# The listing continues.

row,SMILES,inhibition
1,Cc1ccc(C(=O)CCC(=O)OCc2nnc(-c3ccccc3)o2)cc1,inconclusive: 8.6%
2,Nc1ccc(-c2c3ccc(=O)cc-3oc3cc(O)ccc23)cc1C(=O)O,inconclusive: 198%
3,O=C(NNC(=O)c1ccco1)c1cccc([N+](=O)[O-])c1,active: 37.8%
4,CN(CC(=O)Nc1ccccc1Cl)C(=O)COC(=O)C1=COCCO1,inconclusive: -14.6%
5,CCCN=C1N(C)C[C@@H]2[C@@H]3C(=O)N(Cc4ccccc4)C(=O)[C@@H]3[C@](CC)(C(=O)OC)N12,inactive: 0.8%
6,Cc1ccc(NC(=O)c2cc(-c3cccs3)on2)cc1,inactive: -4.5%
7,O=C(O)C1=CCC=CC1C(=O)O (configuration not stated),inactive: 6.2%
8,COc1ccc(/C=C/C(=O)NC(=S)Nc2ccc(S(N)(=O)=O)cc2)cc1OC,inconclusive: -4.7%
9,Cc1ccc(S(=O)(=O)N(CC(=O)NCc2ccncc2)Cc2ccccc2F)cc1,active: 34.8%
10,COc1cc(Cl)c(CN2CCC(CO)(CCOc3ccccc3)CC2)cc1OC,inconclusive: 27.7%
11,Cc1ccc(S(=O)(=O)c2c[nH]c3ccc(C)cc3c2=O)cc1,inconclusive: -16.1%
12,Cc1ccc(N(CC(=O)Nc2ccc(F)cc2)S(=O)(=O)N2CCCC2)cc1,inconclusive: 14%
13,O=C(Nc1ccc(C2=NCCN2)cc1)c1ccc(C(=O)Nc2ccc(C3=NCCN3)cc2)c([N+](=O)[O-])c1,inactive: -21.2%
14,Cc1cc(-n2nc(C)cc2C)nc(NS(=O)(=O)c2ccccc2)n1,inconclusive: -15.8%
15,COCc1cc(C)nc(SCc2ccccc2)c1C#N,inconclusive: -12.7%
16,C/C=C/COC(=O)C1=C(C)NC(=O)NC1c1ccc2c(c1)OCO2 (configuration not stated),inconclusive: 21.5%
17,COc1ccc(Cl)cc1Nc1nc(C)nc2c1oc1ccccc12,inconclusive: -8.7%
18,COCCNC(=O)C1(C)CCN(C(=O)c2cc(C)nn2C(C)(C)C)C1 (configuration not stated),inactive: -4.4%
19,CCC(C)NC(=O)COC(=O)c1cc([N+](=O)[O-])ccc1Sc1nc(C)cs1 (configuration not stated),inactive: 3.9%
20,CCOc1ccccc1-n1c(SCC(=O)N2CCOCC2)nnc1-c1ccccn1,inconclusive: -17.7%
21,Cc1cc(Br)cc(/C=N/NC(=O)c2ccc3c(c2)OCO3)c1O,inconclusive: -42.4%
22,CC(C)[C@H]1C=C(C(=O)O)O[C@@H](OCCCCO)C1,inactive: 5.3%
23,CN(C)CCCNC(=S)N(CCCO)Cc1cc2cc3c(cc2[nH]c1=O)OCO3,inactive: 23.7%

# 3 entries from above, ordered by SMILES length, low to high:
row,SMILES,inhibition
7,O=C(c1ccccc1)N1CCN(C(=O)c2ccccc2)CC1,inactive: -4.2%
3,O=C(NNC(=O)c1ccco1)c1cccc([N+](=O)[O-])c1,active: 37.8%
11,Cc1ccc(S(=O)(=O)c2c[nH]c3ccc(C)cc3c2=O)cc1,inconclusive: -16.1%

# Further results

row,SMILES,inhibition
1,CC1(C)CC(=O)C=C(NCc2cccc(C(F)(F)F)c2)C1,inconclusive: -59.1%
2,COc1ccc(-c2c(C)nn3c(N4CCOCC4)cc(C)nc23)cc1OC,inconclusive: 1%
3,Clc1ccc(N2CCN(Cc3ccco3)CC2)cc1,inconclusive: 7.8%
4,O=C(NCCN1CCCC1)C(c1ccccc1)c1ccccc1,inconclusive: -306%
5,CC(=O)Nc1ccc(/C=C(\C#N)C(N)=O)cc1,active: 35%
6,Oc1[nH]c2ccc(Br)cc2c1N=Nc1ccc(F)cc1,inconclusive: -6.2%
7,Nc1cc(-c2nc3ncccc3o2)ccc1Cl,inactive: -0.6%
8,CC(C)(C)c1nc(Sc2ncccc2[N+](=O)[O-])n[nH]1,inconclusive: 42.3%
9,Cc1ccc(OCC(O)Cn2c(N3CCOCC3)nc3c2c(=O)[nH]c(=O)n3C)cc1 (configuration not stated),inconclusive: -3%
10,Cc1nc(-c2ccccc2)nn1-c1ccc([N+](=O)[O-])cc1,inconclusive: 43.4%
11,CCNC(=O)C1CCCN(C(=O)Cc2cccs2)CC1 (configuration not stated),inactive: -10.3%
12,O=C(NC1CC2CCCC(C1)N2Cc1ccccc1)c1ccc([N+](=O)[O-])cc1 (configuration not stated),inactive: -0.6%
13,Cc1csc(NC(=O)CSc2nncn2C)n1,inconclusive: -15.1%
14,c1ccc(-c2[nH]ncc2CN2CCc3ccccc3C2)cc1,inconclusive: -47.4%
15,Cc1ccc(/C=N/NC(=O)c2ccc(-n3cnnn3)cc2)cc1,inconclusive: -14%
16,Cn1c(O)c(/C=C2\C=Nc3ccccc32)c(=O)n(C)c1=O,inactive: -4.1%
17,Cn1c2ccc(F)cc2c2ncn(CC3CCCO3)c(=O)c21 (configuration not stated),inconclusive: 22.7%
18,Cn1c(=O)[nH]c(=O)c2c1nc(Br)n2Cc1cccc(Br)c1,inconclusive: 5%
19,COc1ccccc1N1CCN(CCc2ccccc2)CC1,inconclusive: -17.7%
20,Cc1c2ccccc2cc(Cc2ccccc2)[n+]1C,inconclusive: 25.1%
21,CC(C)(C)N1CC(C(=O)Nc2cccc(Cl)c2Cl)CC1=O (configuration not stated),inconclusive: -14.1%
22,Cn1cc(-c2cccc(C(F)(F)F)c2)cc(C#N)c1=O,inactive: -4.3%
23,CN(C(=O)COC(=O)c1ccc(Cl)c(N)c1)c1ccccc1,inactive: 6.5%
